Results as given in PubChem BioAssay AID504467 (National Center for Advancing Translational Sciences (NCATS), 2011).
The campaign covered roughly 330,000 compounds. About 7,700 (2.3%) were called active. This list was built around the results that the source calls inconclusive (neither active nor inactive); the mix of calls is not that of the screen. Calls come from the whole dose curve; as a rule, active = well fitted inhibition curve with a large enough effect; inconclusive = small, poorly fitted or top-dose-only effect, or effect the other way; inactive = flat fitted curve, though single readings scatter. Where the call is inconclusive, the potency comes from a doubtful curve fit.
% is set by controls: 0 for no effect and ±100 for the full control effect; potency is the fitted concentration of half-maximal effect.

Test: qHTS screen for small molecules that inhibit ELG1-dependent DNA repair in human embryonic kidney (HEK293T) cells expressing luciferase-tagged ELG1; note: nearly all actives have a fitted effect of over 55% in size
Conditions: HEK293T ELG1-luciferase reporter, luminescence, 16 h, DNA damage induced by 5-fluorouridine; activity change, negative = inhibition: at 46.1 µM (top of the series)
Method in brief: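 In this reporter screen, reduction of luminescence relative to DMSO vehicle indicated activity. Compounds and 5-fluorouridine were added together to 2,000 cells per well, incubated for 16 hr at 37 °C, then developed with ONE-Glo.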
In the case of c1ccc(NC2=Nc3cccc4cccc2c34)cc1, the Potency is reported as inconclusive: 11.6 µM [activator, partial curve, poor fit]. For CCc1cc(C(=O)c2ccc(OC)cc2)c(NC(=O)CN2CCCCC2)s1, the “activity change, negative = inhibition” value was inactive: -4.8%. For Cc1ccc(S(=O)(=O)N2CCN(C(=O)C3CCN(C(=O)c4ccccc4C)CC3)CC2)cc1C, the Potency was inconclusive: 23.1 µM [inhibitor, single point]. In the case of CCC(C(=O)O/N=C(\N)c1cccc(C)c1)c1ccccc1 (centres undefined), the Potency is reported as inconclusive: 20.6 µM [activator, partial curve]. With Cc1cccc(Oc2coc3cc(OC(=O)c4cc5ccccc5oc4=O)ccc3c2=O)c1 the Potency was inconclusive: 14.6 µM [activator, partial curve]. In the case of O=C(COC(=O)c1cccnc1Cl)c1cccc(Cl)c1, the Potency is reported as inconclusive: 25.9 µM [activator, single point]. In the case of Cc1cccc(C(=O)NC(C)C(c2cccs2)N2CCOCC2)c1 (centres undefined), the Potency is reported as inconclusive: 23.1 µM [activator, partial curve, poor fit]. In the case of CCC1CCCCN1C(=O)CSc1nnc(-c2cccs2)o1 (centres undefined), the Potency is reported as inconclusive: 6.51 µM [activator, partial curve]. In the case of Cc1cccc(NC(=O)c2nc[nH]c2C(=O)NCC(=O)OC(C)(C)C)c1, the Potency is reported as inconclusive: 29.1 µM [inhibitor, single point]. In the case of COc1ccc(/C=C(\C#N)C(=O)OCC(=O)Nc2ccc(C(C)(C)C)cc2)cc1, the Potency is reported as inconclusive: 16.4 µM [activator, partial curve, poor fit]. With C/C(=N/OC(=O)c1ccc(F)cc1)c1ccc(C)cc1 the Potency was inconclusive: 23.1 µM [activator, partial curve, poor fit]. In the case of CCn1c(O)c(N=NC2=NC(=O)CS2)c2ccccc21, the Potency is reported as inconclusive: 25.9 µM [activator, partial curve, poor fit]. In the case of COc1ccc(C2(c3ccc(OC)cc3)NC(=O)N(CC(=O)Nc3ccccc3C(F)(F)F)C2=O)cc1, the Potency is reported as inconclusive: 29.1 µM [inhibitor, single point]. With O=P(c1ccccc1)(c1ccccc1)C(O)c1ccc(Br)cc1 (centres undefined) the “activity change, negative = inhibition” value was inactive: 4.61%. In the case of CC(=O)Nc1ccc(NC(=S)Nc2ccccc2)cc1, the “activity change, negative = inhibition” value is reported as inactive: 2.31%. With O=C(COC(=O)c1ccccc1NCCO)NCC1CCCCC1 the Potency was inconclusive: 18.3 µM [activator, single point]. For COc1ccc(CCNC(=O)C2CCN(C(=O)c3ccc(Br)cc3)CC2)cc1, the “activity change, negative = inhibition” value was inactive: 4.1%. For CN(CC(=O)Nc1cccc(S(=O)(=O)N2CCCC2)c1)CC(=O)Nc1ccc(Cl)c(C(F)(F)F)c1, the Potency was active: 14.6 µM. For CC1=NN(C(=O)c2ccc(Br)cc2)C(O)(c2ccccc2)C1 (centres undefined), the Potency was inconclusive: 32.6 µM [inhibitor, partial curve, poor fit]. For CCOC(=O)c1sc(NC(=O)C2CC(=O)N(c3ccccc3C)C2)nc1C (centres undefined), the “activity change, negative = inhibition” value was inactive: -0.523%. In the case of Cc1ccc(C(=O)NCCc2c[nH]c3ccccc23)c(C)c1, the Potency is reported as inconclusive: 29.1 µM [activator, single point]. For CSc1ccccc1C(=O)OCC(=O)Nc1cccnc1Cl, the Potency was inconclusive: 29.1 µM [inhibitor, single point]. For Cc1ccc(/C=N/NC(=O)c2ccccc2OCc2cccc(Br)c2)o1, the Potency was inconclusive: 23.1 µM [inhibitor, single point]. For Cc1cc(C)nc(SCc2cc(=O)c(OC(=O)c3ccc(Cl)c([N+](=O)[O-])c3)co2)n1, the Potency was inconclusive: 14.6 µM [inhibitor, partial curve]. For Cc1cccc(NC(=O)C(C)OC(=O)c2ccccc2NS(=O)(=O)c2cc(C)c(C)c([N+](=O)[O-])c2)c1 (centres undefined), the Potency was inconclusive: 29.1 µM [inhibitor, single point]. For CCNC(=O)COC(=O)CCC(=O)c1cccs1, the Potency was inconclusive: 20.6 µM [activator, single point]. With Cc1nnc(NC(=O)CCn2c(=O)oc3ccc(Cl)cc32)s1 the Potency was inconclusive: 23.1 µM [activator, single point]. For COCCCNc1nc(N)c([N+](=O)[O-])c(NC2CCCCC2)n1, the “activity change, negative = inhibition” value was inactive: 3.95%. For COc1cc(C)ccc1OCc1cc(C(=O)NCCN2CCOCC2)no1, the Potency was inconclusive: 13 µM [activator, partial curve]. With CCC(=O)N(Cc1ccc2c(c1)OCO2)Cc1cc2cc(OC)ccc2[nH]c1=O the Potency was inconclusive: 18.4 µM [inhibitor, partial curve, poor fit]. In the case of CCOCCCNCC(=O)Nc1ccccc1N1CCOCC1, the “activity change, negative = inhibition” value is reported as inactive: -0.653%. In the case of C=CCn1c(SCC(=O)Nc2ccc(-c3nc4ccc(C)cc4s3)cc2)nnc1-c1ccncc1, the Potency is reported as inconclusive: 4.11 µM [activator, partial curve]. With O=C(NCc1cccnc1)c1ccc(NC(=O)c2ccco2)cc1 the Potency was inconclusive: 29.1 µM [activator, single point]. With COc1ccc(NC(=O)c2cc3c(Cl)nc4ccccc4c3s2)cc1OC the Potency was inconclusive: 6.51 µM [inhibitor, partial curve]. For COC(=O)C1C(=O)c2c([nH]c(C(=O)OC3CCCC3C)c2C)CC1C (centres undefined), the Potency was inconclusive: 2.91 µM [activator, partial curve]. In the case of CC1Oc2ccccc2C=C1/C=N/NC(=O)c1ccccc1O (centres undefined), the “activity change, negative = inhibition” value is reported as inactive: -8.16%. In the case of Cc1c(Br)c([N+](=O)[O-])nn1CC(=O)Nc1ccc(C(N)=O)cc1, the “activity change, negative = inhibition” value is reported as inactive: -1.97%. With COc1ccc(-c2nc(SCC(=O)NC3CCCC3)c(-c3ccc(OC)cc3)[nH]2)cc1 the Potency was inconclusive: 18.4 µM [inhibitor, single point]. For COc1ccc(S(=O)(=O)N2CCC(c3nc4ccccc4[nH]3)CC2)cc1, the Potency was inconclusive: 20.6 µM [inhibitor, single point]. For COc1ccc(-c2ccnc(-c3ccc(OCCCF)cc3)n2)cc1, the Potency was inconclusive: 18.4 µM [inhibitor, single point]. With Cc1ccc(C(=O)Nc2ccc3c(c2)CCC3)cc1 the Potency was inconclusive: 0.651 µM [activator, full curve]. In the case of COc1ccc(NC(=O)N2CCN(S(C)(=O)=O)CC2)cc1OC, the “activity change, negative = inhibition” value is reported as inactive: -1.71%. In the case of O=C(NCCn1ccc2ccccc21)c1ccc(S(=O)(=O)N2CCCCC2)cc1, the Potency is reported as inconclusive: 29.1 µM [inhibitor, single point]. For C[C@@H](CN=[N+]=[N-])CN1CC[C@H](C(C)(C)C)CCC1=O, the “activity change, negative = inhibition” value was inactive: -10.6%. In the case of CC(=O)c1cn(CC(=O)Nc2ccccc2Cl)c2ccccc12, the “activity change, negative = inhibition” value is reported as inactive: -4.74%. For CCCCC(=O)Nc1ncc2c(n1)CC(C)(C)CC2=O, the Potency was inconclusive: 18.4 µM [activator, partial curve, poor fit]. For CCN(CC(=O)NCc1ccc(Cl)cc1)C(=O)c1cc2ccccc2o1, the “activity change, negative = inhibition” value was inactive: -5%. With Cc1nn(-c2ccccc2)c(N)c1Sc1cccc([N+](=O)[O-])c1 the “activity change, negative = inhibition” value was inactive: -8.81%. In the case of COc1ccc(/C=C/c2nnc(NC(=O)CSc3ccc(Cl)cc3)s2)cc1, the Potency is reported as inconclusive: 29.1 µM [activator, single point]. In the case of CN(c1nc2nonc2nc1NC1CC1)C1CCOC1 (centres undefined), the Potency is reported as inconclusive: 23.1 µM [inhibitor, partial curve]. With COc1cc2nc(CCc3ccccc3)oc(=O)c2cc1OC the “activity change, negative = inhibition” value was inactive: 5.5%. In the case of Cc1ccc(NC(=O)c2cc(-c3ccco3)on2)cc1, the Potency is reported as inconclusive: 25.9 µM [activator, single point]. In the case of COc1ccc(/C=N/NC(=O)c2ccc(Cl)cc2Cl)cc1COC(C)=O, the Potency is reported as inconclusive: 23.1 µM [inhibitor, partial curve, poor fit]. With COc1ccc(-c2ccc3ccccc3n2)cc1 the Potency was inconclusive: 2.06 µM [activator, full curve]. With COc1ccccc1NC(=O)Nc1nnc(Cc2ccc(F)cc2)s1 the Potency was inconclusive: 5.01 µM [activator, single point]. With O=C(NC(=S)Nc1ccc(N2CCOCC2)cc1)c1cccc([N+](=O)[O-])c1 the “activity change, negative = inhibition” value was inactive: -9.1%. With Cc1cc(C(=O)Nc2cccc([N+](=O)[O-])c2C)cs1 the Potency was inconclusive: 29.1 µM [activator, single point]. For Cc1ccc(NC(=O)c2cc(-c3ccc(C)o3)nc3ccccc23)nc1, the Potency was inconclusive: 29.1 µM [inhibitor, single point]. For O=[N+]([O-])c1ccc2[nH]c(O)c(N=NC(=S)NCC3CCCO3)c2c1 (centres undefined), the “activity change, negative = inhibition” value was inactive: 4.47%. With Cc1c(C(=O)C(=O)N2CCN(C)CC2)c2ccccc2n1C the “activity change, negative = inhibition” value was inactive: 12.4%. For O=C(CSC1=NCCN1)Nc1cccc(C(F)(F)F)c1, the “activity change, negative = inhibition” value was inactive: -11.2%. In the case of CCCCc1c(C)c2ccc(OCC(C)=O)cc2oc1=O, the Potency is reported as inconclusive: 9.2 µM [activator, partial curve]. With COc1ccc2oc(=O)c(C(=O)NCC3CCCO3)cc2c1 (centres undefined) the Potency was inconclusive: 16.4 µM [activator, single point]. With O=C1CC(N2CCC(c3nc4ccccc4o3)CC2)C(=O)N1c1ccc(Cl)c(C(F)(F)F)c1 (centres undefined) the Potency was inconclusive: 29.1 µM [inhibitor, single point]. In the case of CCOC(=O)c1c(C)n(C)c2ccc(OC)c(NC(=O)CCN3CCSCC3)c12, the “activity change, negative = inhibition” value is reported as inactive: -10.9%. For CCCC(=O)Nc1c(O)c2ccccc2[nH]c1=O, the Potency was inconclusive: 29.1 µM [activator, single point]. In the case of C/C(=N\NC(=O)c1ccncc1)c1cccc(NC(=O)c2ccc(C(C)(C)C)cc2)c1, the Potency is reported as inconclusive: 32.6 µM [inhibitor, single point]. In the case of COc1cccc(NC(=S)NCc2ccco2)c1, the Potency is reported as inconclusive: 18.4 µM [activator, partial curve]. With C#CCn1c(C)cc(C)c(S(=O)(=O)c2ccccc2)c1=O the Potency was inconclusive: 23.1 µM [activator, partial curve].
